Among all 320,000 compounds or so, about 22,000 (6.9%) were called active. This list was built around the results that the source calls inconclusive (neither active nor inactive); the mix of calls is not that of the screen. Calls follow the shape of the dose curve; as a rule, active = well fitted inhibition curve with a large enough effect; inconclusive = small, poorly fitted or top-dose-only effect, or another doubt; inactive = no such curve, though single readings can be large or run the other way. A potency beside an inconclusive call is a rough fit, not a confirmed value.
Assay: Primary qHTS for delayed death inhibitors of the malarial parasite plastid, 96 hour incubation
Conditions: P. falciparum luciferase reporter growth; series mostly up to 28.7 µM
Method in brief: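 Cell-based qHTS: luciferase-tagged P. falciparum in erythrocytes (2% hematocrit, 0.05% parasitemia final) incubated with compounds for 96 hours, 37 C, 5% CO2; luciferase detection reagent then added and luminescence measured.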
In the case of CC(C)CCN(C(=S)Nc1cccc(C(F)(F)F)c1)C(C)c1ccccn1 (centres undefined), the Potency is reported as inconclusive: 18.5 µM [inhibitor, single point]. In the case of O=C(c1ccc(Br)o1)N1CCN(c2ccccc2F)CC1, the Potency is reported as inconclusive: 10.4 µM [inhibitor, single point]. For CC(=O)ONC(=Nc1ccccc1)c1nonc1N, the Potency was “inactive”. With O=C(CN(c1ccccc1)S(=O)(=O)c1ccccc1)N/N=C/c1ccc(OC2CSC2)cc1 the Potency was inconclusive: 10.4 µM [inhibitor, single point]. With CC1CC(C)CN(C(=O)CSc2nc(Cc3cccs3)nc3ccccc23)C1 (centres undefined) the Potency was inconclusive: 20.8 µM [inhibitor, partial curve, poor fit]. With Cc1ccc(NC(=O)NCC2CCN(Cc3cccc(Cl)c3)CC2)cc1Cl the Potency was inconclusive: 3.7 µM [inhibitor, partial curve, poor fit]. In the case of Fc1ccc(-c2csc(-c3ccccn3)n2)cc1F, the Potency is reported as “inactive”. In the case of CCN(CC)CCOC(=O)c1ccc(Cl)cc1Cl, the Potency is reported as inconclusive: 2.33 µM [inhibitor, partial curve, poor fit]. With Cc1onc(-c2ccccc2)c1C(=O)c1c[nH]c(C(=O)NCCCN2CCOCC2)c1 the Potency was inconclusive: 11.7 µM [inhibitor, partial curve, poor fit]. In the case of O=C(C[n+]1cc(Br)cc(Br)c1)c1ccccc1, the Potency is reported as active: 0.165 µM. For Cc1cccc(NC(=O)NCc2cccnc2)c1C, the Potency was “inactive”. For CCn1c(C(C)C)n[nH]c1=S, the Potency was inconclusive: 18.5 µM [inhibitor, single point]. In the case of COCc1ccc(C(=O)N2CCCC(C(=O)c3ccc(Cl)cc3C)C2)o1 (centres undefined), the Potency is reported as inconclusive: 18.5 µM [inhibitor, single point]. For COc1ccc(S(=O)(=O)N2CCN(Cc3cc(OC)c(O)c(OC)c3)CC2)cc1, the Potency was “inactive”. In the case of Nc1ccccc1-n1cccc1, the Potency is reported as “inactive”. With COc1ccc(Cl)cc1NC(=O)CNc1ccccc1N1CCOCC1 the Potency was inconclusive: 18.5 µM [inhibitor, single point]. For Cc1nnc(SCC(=O)Nc2ccc(N3CCOCC3)cc2)o1, the Potency was inconclusive: 16.5 µM [inhibitor, single point]. In the case of O=C(OCc1ccccc1)c1ccc2c(c1)-c1ccccc1C2=O, the Potency is reported as inconclusive: 14.7 µM [inhibitor, single point]. In the case of COc1ccc(-c2nc3ccc(C)cn3c2NCc2ccccc2)cc1SC1CCCCC1, the Potency is reported as active: 6.57 µM. For CC(NC(=O)c1ccccc1)c1nnc(SCC(=O)NC2CCCC2)n1C (centres undefined), the Potency was “inactive”. For O=C(CN1c2cccc3cccc(c23)S1(=O)=O)N1CCN(c2ccc(F)cc2)CC1, the Potency was inconclusive: 18.5 µM [inhibitor, single point]. For CC(C)(C)c1cc(/C=C2\NC(=O)NC2=O)cc(C(C)(C)C)c1O, the Potency was “inactive”. For O=C(Nc1ccncc1)C1COc2ccccc2O1 (centres undefined), the Potency was inconclusive: 10.4 µM [inhibitor, single point]. In the case of O=C(NN=C1c2ccccc2-c2ccccc21)c1cccc(Br)c1, the Potency is reported as inconclusive: 18.5 µM [inhibitor, single point]. In the case of O=C1C=CC(=O)N1c1ccc(OC(F)F)cc1, the Potency is reported as active: 9.28 µM. For COC(=O)c1ccc(CC(C(=O)c2ccccc2)N(C)C)cc1 (centres undefined), the Potency was inconclusive: 14.7 µM [inhibitor, single point]. In the case of CCN(CC(=O)NCc1ccc(Cl)cc1)C(=O)COc1cccc(Cl)c1, the Potency is reported as inconclusive: 18.5 µM [inhibitor, single point]. With Cc1nn(C2CCS(=O)(=O)C2)c(Cl)c1/C=C/C(=O)OCC(=O)c1c[nH]c2ccccc12 (centres undefined) the Potency was inconclusive: 11.7 µM [inhibitor, partial curve]. With COc1cc(CN2CCC(n3nccc3NC(=O)CCCc3ccccc3)CC2)ccc1F the Potency was inconclusive: 18.5 µM [inhibitor, single point]. For O=C(OCC(=O)N1CCCC1=O)C1CCN(S(=O)(=O)c2c(Cl)cccc2Cl)CC1, the Potency was “inactive”. In the case of Cc1cc(C)cc(OCC(O)CN2CC(C)OC(C)C2)c1 (centres undefined), the Potency is reported as inconclusive: 10.4 µM [inhibitor, single point]. For COc1ccccc1NC(=O)C(=O)N1CCCC1, the Potency was inconclusive: 0.294 µM [inhibitor, full curve, poor fit]. For CCc1nn(C(CC)C(=O)NCc2cccs2)c(=O)c2cc3occc3n12 (centres undefined), the Potency was inconclusive: 18.5 µM [inhibitor, single point]. In the case of O=C(O)CC1=C(Nc2ccccc2)C(=O)N(c2ccccc2)C1c1ccc(Br)cc1 (centres undefined), the Potency is reported as inconclusive: 4.65 µM [inhibitor, partial curve, poor fit]. For CCc1ccc(NC(=O)C2CCCN(S(=O)(=O)c3cnc[nH]3)C2)cc1 (centres undefined), the Potency was inconclusive: 18.5 µM [inhibitor, single point]. In the case of CC(C)c1cccc(C(C)C)c1NC(=O)c1ccc(OCC(=O)NCc2ccccc2)cc1, the Potency is reported as inconclusive: 11.7 µM [inhibitor, single point]. In the case of Cc1nn(-c2ccccc2)c(Cl)c1C1C(C#N)=C(N)OC2=C1C(=O)CC(C)(C)C2 (centres undefined), the Potency is reported as inconclusive: 9.28 µM [inhibitor, partial curve, poor fit]. For COC(=O)CC1=C(C(=O)OC)C(c2ccc3c(c2)OCO3)C(C#N)=C(N)O1 (centres undefined), the Potency was “inactive”. In the case of COc1cccc(Nc2ncc(C(=O)O)c3ccccc23)c1, the Potency is reported as inconclusive: 1.31 µM [inhibitor, partial curve]. In the case of CCOc1ccccc1N(CC(=O)NC1CCCCC1)S(=O)(=O)c1ccccc1, the Potency is reported as inconclusive: 2.33 µM [inhibitor, full curve]. For CCn1ncc(C2C(C(=O)Nc3ccc(C)cn3)=C(C)NC3=C2C(=O)CCC3)c1C (centres undefined), the Potency was inconclusive: 4.65 µM [inhibitor, single point]. For COc1ccc(NC(=O)CC2CC3CCC2C3)cn1 (centres undefined), the Potency was “inactive”. In the case of CCCCC(=O)Nc1cc(C)c(NC(=O)c2ccco2)cn1, the Potency is reported as inconclusive: 18.5 µM [inhibitor, single point]. With O=C(Nc1cccc(S(=O)(=O)N2CCCCC2)c1)C1CCCN1S(=O)(=O)c1ccccc1F (centres undefined) the Potency was inconclusive: 18.5 µM [inhibitor, single point]. With Cc1ccc(S(=O)(=O)c2nc(NCCN(C)C)sc2Cl)cc1 the Potency was inconclusive: 9.28 µM [inhibitor, single point]. With C/C(CCc1oc2ccc(Cl)cc2c1-c1ccc(C)o1)=N\O the Potency was “inactive”. For O=C(CSc1nc2ccccc2n1S(=O)(=O)c1cccc([N+](=O)[O-])c1)NCCc1ccccc1, the Potency was inconclusive: 14.7 µM [inhibitor, single point]. For CCOc1ccc(-n2c(=S)sc3c(=O)[nH]c(SCC(=O)NC(C)CC)nc32)cc1 (centres undefined), the Potency was inconclusive: 9.28 µM [inhibitor, single point]. For CC(=O)c1ccc(N2CCN(S(=O)(=O)c3ccc4c(c3)NC(=O)CC(=O)N4)CC2)cc1, the Potency was inconclusive: 14.7 µM [inhibitor, single point]. In the case of CCOc1ccccc1N(C(=O)c1snc(C(N)=O)c1N)C(C(=O)NCc1ccccc1)c1ccc(O)cc1 (centres undefined), the Potency is reported as inconclusive: 11.7 µM [inhibitor, single point]. In the case of O=C(N/N=C/c1ccncc1)c1cccc(NC(=O)c2ccc(Cl)cc2)c1, the Potency is reported as inconclusive: 10.4 µM [inhibitor, partial curve, poor fit]. With Cc1[nH]c2ccccc2c1C(C[N+](=O)[O-])c1cccs1 (centres undefined) the Potency was inconclusive: 4.65 µM [inhibitor, partial curve]. With Cc1ccc(OCC(=O)NCC2CCCO2)c(C)c1 (centres undefined) the Potency was “inactive”. For CN1CC(C(=O)c2ccc([N+](=O)[O-])cc2)C(c2ccc(Cl)cc2)C1 (centres undefined), the Potency was inconclusive: 14.7 µM [inhibitor, single point]. With Cc1[nH]c2ccccc2c1C(O)CN1CCN(c2cccc(C(F)(F)F)c2)CC1 (centres undefined) the Potency was inconclusive: 1.04 µM [inhibitor, partial curve, poor fit]. With Cc1[nH]n(-c2ccc([N+](=O)[O-])cc2)c(=O)c1C=NCCc1c(C)[nH]c2ccccc12 the Potency was “inactive”. In the case of Cc1cccc(Nc2nc(C)cc(C)c2C#N)c1, the Potency is reported as inconclusive: 18.5 µM [inhibitor, single point]. For CCCCCCNC(=O)C(C(=O)OCC)C1CCCCC1 (centres undefined), the activity change, negative = inhibition was inactive: 7.33% [at 5.75 µM]. For COc1ccc(-c2nc3nc(N)nn3cc2C)cc1F, the Potency was inconclusive: 18.5 µM [inhibitor, single point]. With O=C(CCNS(=O)(=O)c1cccc2nonc12)NC1CCCCC1 the Potency was inconclusive: 0.37 µM [inhibitor, full curve]. In the case of COc1cccc(/C=N/c2oc(-c3ccccc3)cc2C#N)c1O, the Potency is reported as “inactive”. In the case of CCCOC(=O)c1ccc2c(c1)C(=O)N(c1ccccc1)C2=O, the Potency is reported as active: 11.7 µM. In the case of CSc1nc(NCC(C)O)c2c3c(sc2n1)CN(C)CC3 (centres undefined), the Potency is reported as active: 6.57 µM. For CN(CC(=O)Nc1ccc(S(=O)(=O)N2CCCC2)cc1)Cc1cccc(Cl)c1Cl, the Potency was active: 9.28 µM. With Cc1ccc(-c2csc(NC(=O)/C=C/c3ccco3)c2C(=O)O)cc1 the Potency was “inactive”. For O=C(O)CSc1nnc(CNc2ccccc2Cl)n1-c1ccccc1, the Potency was inconclusive: 2.33 µM [inhibitor, partial curve, poor fit]. With O=C(Nc1nonc1NC(=O)c1cccs1)c1cccs1 the Potency was “inactive”. With CCOc1ccc(C2C(C(=O)Nc3ccc(F)cc3)=C(C)Nc3nc(CCCO)nn32)cc1 (centres undefined) the Potency was inconclusive: 5.86 µM [inhibitor, partial curve, poor fit]. In the case of O=C(Nc1ccccc1)c1ccccc1OCc1cccc([N+](=O)[O-])c1, the Potency is reported as inconclusive: 18.5 µM [inhibitor, single point].

From PubChem BioAssay AID504834 (National Center for Advancing Translational Sciences (NCATS), 2011)
% is scaled to controls: 0 for no effect and ±100 for the full control effect; potency is read from the fitted curve at half-maximal effect.
